These results are taken from the supplement of paper PMC12823440, “Inhibitors supercharge kinase turnover through native proteolytic circuits” (Nature, 2025).

Sequences of proteins named here, by UniProt entry; tags and fusion partners are left off.
UniProt P31152, whole entry: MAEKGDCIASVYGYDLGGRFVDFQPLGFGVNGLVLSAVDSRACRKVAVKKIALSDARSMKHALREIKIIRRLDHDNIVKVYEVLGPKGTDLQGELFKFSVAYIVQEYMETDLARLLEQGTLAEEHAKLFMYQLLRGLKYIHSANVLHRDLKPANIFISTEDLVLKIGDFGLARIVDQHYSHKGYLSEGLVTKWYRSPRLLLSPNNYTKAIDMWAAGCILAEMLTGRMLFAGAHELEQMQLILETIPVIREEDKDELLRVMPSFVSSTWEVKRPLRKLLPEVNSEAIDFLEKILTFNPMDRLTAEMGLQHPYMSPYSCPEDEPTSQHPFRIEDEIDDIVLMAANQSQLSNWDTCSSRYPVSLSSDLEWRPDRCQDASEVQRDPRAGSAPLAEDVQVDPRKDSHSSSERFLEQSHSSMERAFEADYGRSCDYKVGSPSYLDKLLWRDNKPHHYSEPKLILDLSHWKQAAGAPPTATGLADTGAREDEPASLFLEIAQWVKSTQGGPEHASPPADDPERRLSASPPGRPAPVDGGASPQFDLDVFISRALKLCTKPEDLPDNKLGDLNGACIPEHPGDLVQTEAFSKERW

Structures can show the parent of a compound that is named as a salt. The list shows a part of the results. Hit calls seldom repeat between salt and free forms of one compound.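 Kinases, fused to nanoluciferase, were expressed in K562 cells; luminescence was measured every 4 h from 2 to 18 h as percent of control (DMSO = 100%, positive control = 0%). A time point is decreased if signal falls significantly (2 sigma). Hits were called by the authors by a rule that is not shown; the count of time points alone does not decide it.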

In the assay the target is MAPK4 (UniProt P31152). The experiment in a line: number of time points (of 5) at which kinase-Nluc abundance scored as decreased, DMSO-normalised (count); higher = more persistent destabilization. As to conditions: K562; 2-18 h.
As to `CCc1c(C(=O)NNC(=O)C(O)c2cc(F)cc(F)c2)ccc(O)c1C` (stereo not drawn) (10 µM), the “number of time points” value worked out at 0.
For the compound `COc1cc2ncnc(Nc3ccc(Cl)cc3F)c2cc1OC` (10 µM), the “number of time points” value worked out at 0.
The same measure for `COc1cc(/C=C/C(=O)NCC(O)c2ccc(O)cc2)ccc1O` (stereo not drawn) [N-Feruloyloctopamine] (2.5 µM): 0; for `NC(=O)c1nc(Nc2ccccc2)sc1NC(=O)C1CCCCC1` (10 µM): 0; for `O=c1cc(CN2CCOCC2)occ1OCCCCCSc1ccnc2cc(C(F)(F)F)ccc12` (10 µM): 0.
To `O=C(O)CCC(=O)Nc1ccc(Br)cn1` [Bikinin] (10 µM) belongs 0; to `CC[C@@H](Oc1nc(Oc2cc(C)cc(-c3cccc(CN)c3)c2)c(F)cc1F)C(=O)O` (10 µM), 0; to `C[C@]1(O)CCN(c2nc(N3C[C@H](O)[C@@H](O)C3)cc(C(F)(F)F)c2C#N)C1` (10 µM), 0.
As for `COc1ccccc1-c1cc(Nc2cccc(CS(N)(=O)=O)c2)ncn1` (10 µM), the “number of time points” value is 0.
The same measure for `CC(=O)c1c(C)cc2cccc(O)c2c1O` [Nepodin] (10 µM): 0.
To `NC(=O)c1ccc2[nH]ccc2c1` (10 µM) belongs 0.
For `COc1cc2c(cc1OC)CN(S(=O)(=O)c1ccc(OC)c(N3CCN(C(=O)c4ccc(F)cc4C(F)(F)F)CC3)c1)CC2` (10 µM), the “number of time points” value was 0.
The same measure for `OCCn1cc(-c2ccc3c(c2)CC/C3=N\O)c(-c2ccncc2)n1` (10 µM): 0.
The same measure for `C[C@@H]1CC[C@@H](Nc2nc(NC(C)(C)C)ncc2C(N)=O)C[C@H]1O` (10 µM): 0.
To `CCc1cc2c(cc1N1CCC(N3CCOCC3)CC1)C(C)(C)c1[nH]c3cc(C#N)ccc3c1C2=O` [Alectinib] (10 µM) belongs 0; to `COCCNc1nc2ccc(C#CC3(O)CCCCC3)cc2n1-c1ccnc(N)n1` (10 µM), 0; to `Cc1[nH]c(/C=C2\C(=O)Nc3ccccc32)c(C)c1CCC(=O)O` [Orantinib] (10 µM), 0.
Turning to `Nc1cc(C(F)(F)F)c(-c2cc(N3CCOCC3)nc(N3CCOCC3)n2)cn1` [Buparlisib (Hydrochloride)] (2.5 µM), the “number of time points” value came out at 0.
As for `CCN1CCN(Cc2ccc(Nc3ncc(F)c(-c4cc(F)c5nc(C)n(C(C)C)c5c4)n3)nc2)CC1` [Abemaciclib (methanesulfonate)] (10 µM), the “number of time points” value came to 0.
To `Cc1ccc2cc(-c3c(C)ccc(C(=O)c4c(-c5ccccc5)n(C)n(-c5ccccc5)c4=O)c3N)ccc2n1` (2.5 µM) belongs 0.
`FC(F)(c1ccc2ncccc2c1)c1nnc2ccc(-c3ccncc3)nn12` (10 µM): the “number of time points” value turned out to be 0.
To `O=C1N[C@@H](Cc2c[nH]c3ccccc23)C(=O)N2CCC[C@@H]12` [Brevianamide F] (10 µM) belongs 0; to `Cc1nc2sccn2c(=O)c1CCN1CCC(=C(c2ccccc2)c2ccc(F)cc2)CC1` (10 µM), 0; to `O=c1[nH]c(=O)n([C@@H]2O[C@H](CO)[C@@H](O)[C@@H]2O)cc1/C=C/Br` [Sorivudine] (10 µM), 0.
The same measure for `COc1cc2nccc(Oc3ccc(NC(=O)NC4CC4)c(Cl)c3)c2cc1C(N)=O` [Lenvatinib (mesylate)] (10 µM): 0; for `CN1C(=O)N[C@H](Cc2c[nH]c3c(Cl)cccc23)C1=O` [Necrostatin 2] (10 µM): 0.
To `CCN1CCN(Cc2ccc(Nc3ncc(F)c(-c4cc(F)c5nc(C)n(C(C)C)c5c4)n3)nc2)CC1` [Abemaciclib] (2 µM) belongs 0.
For `Cc1ccc2nc(NCCN)c3ncc(C)n3c2c1` (2.5 µM), the “number of time points” value turned out to be 0.
To `CNC(=O)c1c(F)cccc1Nc1nc(Nc2cc3c(cc2OC)CCN3C(=O)CN(C)C)nc2[nH]ccc12` (10 µM) belongs 0; to `Cn1nccc1Nc1nccc(-c2ccn([C@H](CO)c3ccc(Cl)c(F)c3)c(=O)c2)n1` [Ravoxertinib hydrochloride] (10 µM), 0; to `CN(C)CCSSCCNC(=O)C1CCN(C(=O)CSc2ccc(Cl)cc2)CC1` (10 µM), 0.
The same measure for `CNC(=O)c1cc(COc2nnc(Nc3ccc(Cl)cc3)c3ccoc23)ccn1` [Telatinib] (10 µM): 0; for `NCCNS(=O)(=O)c1cccc2c(Cl)cccc12` [A-3 (hydrochloride)] (10 µM): 0.
To `O=C(Nc1ccc(CN2CCOCC2)cc1)c1ccc(-c2cccc(Cl)c2)o1` (10 µM) belongs 0.
Regarding `CCN1CCN(Cc2ccc(-c3cc4c(N[C@H](C)c5ccccc5)ncnc4[nH]3)cc2)CC1` (2.5 µM), the “number of time points” value worked out at 1.
To `COc1cccc(OC)c1C(=O)OCc1cc(O)ccc1O[C@@H]1O[C@H](CO)[C@@H](O)[C@H](O)[C@H]1O` [Curculigoside] (10 µM) belongs 0; to `Nc1ncnc2c1c(-c1ccc(Oc3ccccc3)cc1)nn2C1CCCC1` (2.5 µM), 0; to `CC#CC(=O)N1CC[C@@H](n2c(=O)n(-c3ccc(Oc4ccccc4)cc3)c3c(N)ncnc32)C1` [Tirabrutinib] (10 µM), 0.
